Assay: Comparison with common methylene blue method: hydrogen sulfide concentrations in plasma
Design: species or system rat

SMILES | hydrogen sulfide concentration in plasma (Myocardial infarction model) | hydrogen sulfide concentration in plasma (Normal rat)
C1C[N]2CC[N]3CC[N]1[64Cu]23 [Example 20, ^64Cu-labeled TACN] | 41.8 | 23.6
CN(C)c1ccc2nc3ccc(=[N+](C)C)cc-3sc2c1 [Methylene blue, reference compound] | 40.3 | 23.8
